Measured values as given in patent US20070081998A1.
These are yes or no findings as the source states them, for the method shown. Some binding calls cover weakened binding; strength is not graded here.

Chains of the proteins cited; added tags and fusions are not shown. Residues count along the entry.
UniProt P05067, residues 672-713: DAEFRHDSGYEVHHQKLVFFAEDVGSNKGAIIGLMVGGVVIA

Molecular target: Aβ in dense core and diffuse plaques in human Alzheimer's Disease brain tissue (human) (UniProt P05067)
Test: immunohistochemistry on human Alzheimer's Disease brain tissue, biotinylated antibody

B1: Hu20C2A3 (veneered version of clone A3, IgG2m4 isotype) (antibody, V domains shown)
VH: QVTLKESGPGLLKPTQTLTLTCTLSGFSLSTSGMGVGWFRQPPGKGLEWLAHIWWDDDKSYNPSLKSRLTISKDTSKNQVVLTITNVDPVDTATYYCARRQLGTRGTDAMDYWGQGTTVTVSS
VL: DVVMTQTPLSLPVTPGQPASISCRSSQSILHSNGNTYLEWYLQKPGQSPQLLIYKVSNRFSGVPDRFSGSGSGTDFTLKISRVEAEDVGVYYCLQTTRVPLTFGQGTKLEIKR
- binding: binds
